Laboratory results taken from paper PMC6470423.
Results are given in words; binding and its absence hold for the method and conditions named. Binding seen in cells or lysates may run through a third protein. Some binding calls cover weakened binding; strength is not graded here. For part of these data: Tags and fused reporters may be left off the sequences shown.

The chains behind the UniProt entries cited, without tags or fusion partners.
UniProt P02340: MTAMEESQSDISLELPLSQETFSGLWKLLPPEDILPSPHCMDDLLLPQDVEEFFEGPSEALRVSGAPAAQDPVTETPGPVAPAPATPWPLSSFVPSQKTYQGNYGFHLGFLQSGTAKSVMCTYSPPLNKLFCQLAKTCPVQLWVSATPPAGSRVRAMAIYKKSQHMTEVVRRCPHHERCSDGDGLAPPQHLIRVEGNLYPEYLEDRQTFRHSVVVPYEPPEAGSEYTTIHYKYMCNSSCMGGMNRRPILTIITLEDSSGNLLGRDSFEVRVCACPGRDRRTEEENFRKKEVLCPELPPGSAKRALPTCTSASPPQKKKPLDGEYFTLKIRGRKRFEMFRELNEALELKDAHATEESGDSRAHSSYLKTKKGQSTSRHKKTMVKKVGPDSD

Columns and labels:
[1] = biological target: GST-BRCA1-1 (aa 15-172, RING finger domain) (mouse) (UniProt P48754); experiment: pull-down; GST-BRCA1 fragments on glutathione-Sepharose 4B beads, total lysates of OGD/R-treated NSCs added for 4 h at 4°C, immunoblot with anti-GST and anti-p53; only the target purified
[2] = biological target: T1, GST-BRCA1-3 (aa 1591-1784, BRCT domain) (mouse) (UniProt P48754); experiment: as above
T1 sequence: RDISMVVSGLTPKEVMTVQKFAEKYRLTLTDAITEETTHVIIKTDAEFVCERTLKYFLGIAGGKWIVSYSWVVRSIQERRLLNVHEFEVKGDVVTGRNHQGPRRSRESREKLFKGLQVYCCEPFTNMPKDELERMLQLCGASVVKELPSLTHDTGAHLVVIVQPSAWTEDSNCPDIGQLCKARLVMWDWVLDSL

[3] = biological target: Breast cancer susceptibility protein 1 (BRCA1) (mouse (endogenous in NSCs from C57BL/6J embryos)) (UniProt P48754); experiment: co-IP; RIPA lysates (500 ug) of OGD/R-treated NSCs, anti-BRCA1 or anti-p53 or control IgG 12 h at 4°C, protein A/G-agarose beads, immunoblot

Measured: binding

p53 (from UniProt P02340 1-390)
binds: all assays above
